PMC5069480
These are yes or no findings as the source states them, for the method shown. Binding seen in cells or lysates may run through a third protein. Sequences can lack the tags named with a protein.

The substances below were run against T1, MYC-tagged full-length mouse MPP2 (MAGUK p55 subfamily member 2) (mouse) (UniProt Q9WV34) (assay: co-IP; tagged recombinant proteins coexpressed in COS7 cells; lysis in 50 mM Tris pH 7.4, 100 mM NaCl, 1 mM EDTA, 1% Triton-X or 0.1% NP-40; IP with anti-MYC, anti-HA or anti-PSD-95 antibody (mouse IgG as control), protein-G-agarose, 4 °C; western blot).
T1 sequence: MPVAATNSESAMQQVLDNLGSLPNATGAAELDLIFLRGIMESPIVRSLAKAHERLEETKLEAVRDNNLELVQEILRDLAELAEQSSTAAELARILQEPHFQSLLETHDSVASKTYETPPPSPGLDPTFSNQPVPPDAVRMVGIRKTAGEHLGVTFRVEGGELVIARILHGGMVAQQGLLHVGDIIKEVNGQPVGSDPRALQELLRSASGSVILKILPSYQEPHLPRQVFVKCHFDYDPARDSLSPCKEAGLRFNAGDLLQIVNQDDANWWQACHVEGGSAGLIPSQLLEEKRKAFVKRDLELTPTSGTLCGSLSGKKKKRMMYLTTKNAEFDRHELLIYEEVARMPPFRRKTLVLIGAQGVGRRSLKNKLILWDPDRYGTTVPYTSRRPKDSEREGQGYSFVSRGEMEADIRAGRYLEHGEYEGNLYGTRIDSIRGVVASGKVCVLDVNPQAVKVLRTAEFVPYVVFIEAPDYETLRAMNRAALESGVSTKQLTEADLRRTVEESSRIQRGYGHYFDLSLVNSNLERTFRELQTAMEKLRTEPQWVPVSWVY

binding, no binding:
mCherry-tagged Stargazin/TARPγ2 C-terminus (10 C-terminal amino acids) (domain or fragment)
mCherry-tagged CKAMP44 C-terminus (10 C-terminal amino acids) (domain or fragment)
mCherry-tagged Neuroligin-1 C-terminus (10 C-terminal amino acids) (domain or fragment)
mCherry-tagged NR2B C-terminus (10 C-terminal amino acids) (domain or fragment)
mCherry-tagged GluA2 C-terminus (10 C-terminal amino acids) (domain or fragment)
mCherry-tagged NGL-1 C-terminus (10 C-terminal amino acids) (domain or fragment)
